Assay in all cases: native MS
Assay [1] addresses Arabidopsis thaliana CRY1 PHR domain (residues 1-509) (Arabidopsis thaliana) (UniProt Q43125).
For assay [2] the target is unchanged. The source holds these as a separate data set.
Assay [3] has the same target. This is another data set of the same source.
Assay [4] shares this target. The source holds these as a separate data set.
The target is the same in assay [5]. The source holds these as a separate data set.

By UniProt entry, the sequences of proteins in these tests, tags left out. Residues count along the entry.
UniProt Q43125, residues 1-509: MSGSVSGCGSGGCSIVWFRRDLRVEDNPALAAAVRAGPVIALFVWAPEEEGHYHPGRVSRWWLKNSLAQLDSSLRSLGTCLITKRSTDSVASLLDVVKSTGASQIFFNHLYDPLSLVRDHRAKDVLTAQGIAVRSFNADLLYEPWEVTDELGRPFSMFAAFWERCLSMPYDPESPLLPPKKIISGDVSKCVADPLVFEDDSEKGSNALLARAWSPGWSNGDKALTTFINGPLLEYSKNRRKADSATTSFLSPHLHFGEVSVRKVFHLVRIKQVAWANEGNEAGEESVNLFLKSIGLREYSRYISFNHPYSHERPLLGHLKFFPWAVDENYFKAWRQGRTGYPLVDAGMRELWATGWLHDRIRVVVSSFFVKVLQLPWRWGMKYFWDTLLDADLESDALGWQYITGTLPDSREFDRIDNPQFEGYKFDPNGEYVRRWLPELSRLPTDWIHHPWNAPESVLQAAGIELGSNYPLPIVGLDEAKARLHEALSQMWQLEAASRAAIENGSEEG

Read-outs that look alike come from different tables or passages of the source. These are yes or no findings as the source states them, for the method shown. Some results given as binding are weak or reduced against the parent protein; the word gives no strength.

With “Arabidopsis thaliana CRY1 PHR domain (residues 1-509) (from UniProt Q43125 1-509) (domain or fragment)”, the binding result was “no binding (condition: in darkness)” in assay [1], “binds weakly” in assay [2] and “binds weakly” in assay [3].

B1: Blue-light Inhibitor of Cryptochromes 1 (BIC1) triple mutant C99A, C105A, C136A (protein, UniProt Q9LXJ1 1-140)
chain: MMNIDDTTSPMAHPIGPSQPPSDQTKQDPPSLPQEAASSVSADKKDLALLEEKPKQSQEEDRVDTGRERLKKHRREIAGRVWIPEIWGQEELLKDWIDASTFDTALVPAGISSARTALVEEARRAASASGGLHNRALILR
In the case of B1, the binding result in assay [4] and in assay [5] was “binds” each time.

The values are drawn from article doi:10.1101/2025.10.06.680677.
